The list is a part of this screen's results and no random one: its compounds were picked by chemical class. Other doses and runs of a compound may be missing. T/C: endpoint of the treated group in % of that of the vehicle group. Some entries give survivors of the animals treated and no T/C: the source files T/C as zero there, which appears to mark a toxic dose or a test without result, not a measured value. Some doses without a T/C left all or most animals alive at the check, yet need not have been tolerated: survival well below the control is almost never listed, so the zero probably covers shortened survival too. Counts of survivors are from the toxicity check (mostly the fifth day) where no day follows; animals may have died later. Schedule codes are those of the source, taken here to give the interval after Q, in days (D) or hours (H), and the number of doses after X. Some schedules carry Z or #; the key to these is not given. For survival time, the PubChem record calls one and a half times the control and up active, and a quarter to a half above the control has no call in these data; cut-offs in other NCI protocols can differ. Some T/C values carry the count of animals alive at the toxicity check (mostly the fifth day); where neither a count nor a note follows, no animal had died by that day. Some entries were tested several times; the values are given in rising order. Some entries show no survivor count and are marked so; the dose need not have been tolerated.
Tested on: L1210 leukemia ip in BDF1 mice, survival T/C
Assay: NCI In Vivo Anticancer Drug Screen. Data for tumor model L1210 Leukemia (intraperitoneal) in B6D2F1 (BDF1) mice
Conditions: T/C endpoint: mean survival time, higher T/C = longer survival
[1] = dose: 100.0 mg/kg/injection, schedule: Q01DX001 (ip), vehicle: saline
[2] = dose: 200.0 mg/kg/injection, schedule: Q01DX001 (ip), vehicle: saline
[3] = dose: 100.0 mg/kg/injection, schedule: Q04DX003 (ip), vehicle: Klucel (hydroxypropylcellulose) (HPC)
[4] = dose: 200.0 mg/kg/injection, schedule: Q04DX003 (ip), vehicle: Klucel (hydroxypropylcellulose) (HPC)
[5] = dose: 400.0 mg/kg/injection, schedule: Q04DX003 (ip), vehicle: Klucel (hydroxypropylcellulose) (HPC)

Question: What does the source list for `O=P(Cl)(Oc1ccccc1)c1ccccc1` (stereo not given)?
Answer: T/C (dose: 100.0 mg/kg/injection, schedule: Q04DX002 (ip), vehicle: saline with Tween-80): 93 % of control; T/C (dose: 200.0 mg/kg/injection, schedule: Q01DX009 (ip), vehicle: saline with Tween-80): 98 % of control; T/C (dose: 200.0 mg/kg/injection, schedule: Q04DX002 (ip), vehicle: saline with Tween-80): 101 % of control; T/C (dose: 400.0 mg/kg/injection, schedule: Q01DX009 (ip), vehicle: saline with Tween-80): 88 % of control; survivor count (dose: 400.0 mg/kg/injection, schedule: Q04DX002 (ip), vehicle: saline with Tween-80): 1 of 3

Question: How did the T/C (dose: 75.0 mg/kg/injection, schedule: Q01DX001 (ip), vehicle: other) turn out when `Cc1nn(-c2ccc([N+](=O)[O-])cc2[N+](=O)[O-])nc1[N+](=O)[O-]` was run?
Answer: 96 % of control

Question: What about the T/C (dose: 150.0 mg/kg/injection, schedule: Q01DX001 (ip), vehicle: other) of the same compound?
Answer: 107 % of control

Question: What about the T/C (dose: 300.0 mg/kg/injection, schedule: Q01DX001 (ip), vehicle: other) of the same compound?
Answer: 113 % of control

Question: Which T/C (dose: 3.0 mg/kg/injection, schedule: Q01DX Z (ip), vehicle: methylcellulose (MC)) does the source give for `CCN(CCCl)CC1OC(O)C(O)C1O` (stereo not given) here?
Answer: 96 % of control

Question: What about the T/C (dose: 3.6 mg/kg/injection, schedule: Q01DX Z (ip), vehicle: methylcellulose (MC)) of the same compound?
Answer: 124 % of control

Question: What about the T/C (dose: 5.3 mg/kg/injection, schedule: Q01DX Z (ip), vehicle: methylcellulose (MC)) of the same compound?
Answer: 106 and 182 % of control

Question: And the T/C (dose: 8.0 mg/kg/injection, schedule: Q01DX Z (ip), vehicle: methylcellulose (MC))?
Answer: 98, 151, 165 % of control

Question: What about the T/C (dose: 12.0 mg/kg/injection, schedule: Q01DX Z (ip), vehicle: methylcellulose (MC)) of the same compound?
Answer: 113, 158, 198 % of control [5 of 6 alive]

Question: What about the T/C (dose: 18.0 mg/kg/injection, schedule: Q01DX Z (ip), vehicle: methylcellulose (MC)) of the same compound?
Answer: 180 % of control

Question: What about the T/C (dose: 27.0 mg/kg/injection, schedule: Q01DX Z (ip), vehicle: methylcellulose (MC)) of the same compound?
Answer: 133 % of control

Question: With `CCOP(=O)(Nc1cccc(C(F)(F)F)c1)OCC` as the compound, how does the T/C (dose: 100.0 mg/kg/injection, schedule: Q01DX001 (ip), vehicle: carboxymethylcellulose (CMC)) read?
Answer: 94 % of control

Question: What about the T/C (dose: 200.0 mg/kg/injection, schedule: Q01DX001 (ip), vehicle: carboxymethylcellulose (CMC)) of the same compound?
Answer: 100 % of control

Question: What about the T/C (dose: 400.0 mg/kg/injection, schedule: Q01DX001 (ip), vehicle: carboxymethylcellulose (CMC)) of the same compound?
Answer: 97 % of control

Question: What does the source list for `NC1CCCCC1.O=P(O)(N(CCCl)CCCl)N1CC1`?
Answer: T/C (dose: 1.0 mg/kg/injection, schedule: Q01DX Z (ip), vehicle: saline): 96 % of control; T/C (dose: 2.0 mg/kg/injection, schedule: Q01DX Z (ip), vehicle: saline): 134 % of control; T/C (dose: 3.13 mg/kg/injection, schedule: Q01DX009 (ip), vehicle: saline): 127 % of control; T/C (dose: 4.0 mg/kg/injection, schedule: Q01DX Z (ip), vehicle: saline): 96 and 143 % of control; T/C (dose: 6.25 mg/kg/injection, schedule: Q01DX009 (ip), vehicle: saline): 161 % of control; T/C (dose: 8.0 mg/kg/injection, schedule: Q01DX Z (ip), vehicle: saline): 149 and 175 % of control; T/C (dose: 12.5 mg/kg/injection, schedule: Q01DX001 (ip), vehicle: saline): 121 % of control; T/C (dose: 12.5 mg/kg/injection, schedule: Q01DX009 (ip), vehicle: saline): 254 % of control; T/C (dose: 12.5 mg/kg/injection, schedule: Q04DX003 (ip), vehicle: saline): 210 % of control; T/C (dose: 16.0 mg/kg/injection, schedule: Q01DX Z (ip), vehicle: saline): 133 % of control; T/C (dose: 25.0 mg/kg/injection, schedule: Q01DX001 (ip), vehicle: saline): 168 % of control; T/C (dose: 25.0 mg/kg/injection, schedule: Q01DX009 (ip), vehicle: saline): 89 % of control; T/C (dose: 25.0 mg/kg/injection, schedule: Q04DX003 (ip), vehicle: saline): 247 % of control; survivor count (dose: 32.0 mg/kg/injection, schedule: Q01DX Z (ip), vehicle: saline): 6 of 6; T/C (dose: 50.0 mg/kg/injection, schedule: Q01DX001 (ip), vehicle: saline): 262 % of control; survivor count (dose: 50.0 mg/kg/injection, schedule: Q01DX009 (ip), vehicle: saline): 6 of 6; T/C (dose: 50.0 mg/kg/injection, schedule: Q04DX003 (ip), vehicle: saline): 129 % of control; survivor count (dose: 62.5 mg/kg/injection, schedule: Q01DX010 (ip), vehicle: saline): 5 of 6; survivor count (dose: 64.0 mg/kg/injection, schedule: Q01DX Z (ip), vehicle: saline): 6 of 6; survivor count [1]: 6 of 6; survivor count (dose: 100.0 mg/kg/injection, schedule: Q04DX003 (ip), vehicle: saline): 2 of 6; survivor count (dose: 125.0 mg/kg/injection, schedule: Q01DX010 (ip), vehicle: saline): 0 of 6; survivor count [2]: 1 of 6; survivor count (dose: 200.0 mg/kg/injection, schedule: Q04DX003 (ip), vehicle: saline): 0 of 6; T/C (dose: 250.0 mg/kg/injection, schedule: Q01DX001 (ip), vehicle: DMSO): 172 % of control; survivor count (dose: 250.0 mg/kg/injection, schedule: Q01DX010 (ip), vehicle: saline): 0 of 6; T/C (dose: 500.0 mg/kg/injection, schedule: Q01DX001 (ip), vehicle: DMSO): 185 % of control; T/C (dose: 650.0 mg/kg/injection, schedule: Q01DX001 (ip), vehicle: DMSO): 167 % of control

Question: Which T/C [1] does the source give for `CCOP1OC(C)(C)C(C)(C)O1` here?
Answer: 102 % of control

Question: And the T/C [2]?
Answer: 93 % of control

Question: What about the T/C (dose: 400.0 mg/kg/injection, schedule: Q01DX001 (ip), vehicle: saline) of the same compound?
Answer: 96 % of control

Question: With `O=[N+]([O-])c1cc([N+](=O)[O-])c2nsnc2c1` as the compound, how does the T/C [3] read?
Answer: 100 % of control

Question: And the T/C [4]?
Answer: 90 % of control [5 of 6 alive]

Question: And the survivor count [5]?
Answer: 0 of 6

Question: For `N#CN/C(N)=N/P(=O)(Oc1ccccc1)Oc1ccccc1`, which T/C (dose: 100.0 mg/kg/injection, schedule: Q04DX002 (ip), vehicle: Klucel (hydroxypropylcellulose) (HPC)) is on record?
Answer: 94 % of control

Question: And the T/C (dose: 200.0 mg/kg/injection, schedule: Q04DX002 (ip), vehicle: Klucel (hydroxypropylcellulose) (HPC))?
Answer: 94 % of control

Question: And the T/C (dose: 400.0 mg/kg/injection, schedule: Q04DX002 (ip), vehicle: Klucel (hydroxypropylcellulose) (HPC))?
Answer: 94 % of control

Question: Which T/C (dose: 50.0 mg/kg/injection, schedule: Q01DX001 (ip), vehicle: carboxymethylcellulose (CMC)) does the source give for `O=[N+]([O-])c1cc([N+](=O)[O-])c(Cl)c([N+](=O)[O-])c1` here?
Answer: 93 % of control [survivor count not shown]

Question: Which results are given for `Cc1ccc(CNCCCl)cc1`?
Answer: T/C (dose: 100.0 mg/kg/injection, schedule: Q01DX009 (ip), vehicle: Klucel (hydroxypropylcellulose) (HPC)): 104 % of control; T/C [3]: 115 % of control; T/C (dose: 200.0 mg/kg/injection, schedule: Q01DX009 (ip), vehicle: Klucel (hydroxypropylcellulose) (HPC)): 93 % of control; T/C [4]: 101 % of control; survivor count (dose: 400.0 mg/kg/injection, schedule: Q01DX009 (ip), vehicle: Klucel (hydroxypropylcellulose) (HPC)): 3 of 6; T/C [5]: 92 % of control

Question: How did the T/C (dose: 1.25 mg/kg/injection, schedule: Q01DX Z (ip), vehicle: saline) turn out when `NP(=O)(NC1CCCCC1)N(CCCl)CCCl` (stereo not given) was run?
Answer: 93 % of control

Question: And the T/C (dose: 2.5 mg/kg/injection, schedule: Q01DX Z (ip), vehicle: saline)?
Answer: 87 % of control

Question: And the T/C (dose: 5.0 mg/kg/injection, schedule: Q01DX Z (ip), vehicle: saline)?
Answer: 95 % of control

Question: And the T/C (dose: 10.0 mg/kg/injection, schedule: Q01DX Z (ip), vehicle: other)?
Answer: 105 % of control

Question: What about the T/C (dose: 10.0 mg/kg/injection, schedule: Q01DX Z (ip), vehicle: saline) of the same compound?
Answer: 90 % of control

Question: What about the T/C (dose: 30.0 mg/kg/injection, schedule: Q01DX Z (ip), vehicle: other) of the same compound?
Answer: 93 % of control [5 of 6 alive]

Question: What about the T/C (dose: 100.0 mg/kg/injection, schedule: Q01DX Z (ip), vehicle: other) of the same compound?
Answer: 92 % of control

Question: And the T/C (dose: 300.0 mg/kg/injection, schedule: Q01DX Z (ip), vehicle: other)?
Answer: 94 % of control
